Laboratory results published in paper PMC4942636.

Legend:
[1] = molecular target: Myc-BirA*-Txnip (human) (UniProt Q9H3M7); experiment: proximity labelling; BioID: Myc-BirA*-Txnip or its C247S mutant stably expressed in HEK293, DMEM with 25 mM glucose and 50 uM biotin for 24 hrs; stringent lysis (0.4% SDS, 500 mM NaCl), biotinylated proteins captured on streptavidin Dynabeads, on-bead trypsin digestion, 1D LC-MS/MS; hits in at least 2 of 3 trials, parental HEK293 as control; also the high glucose arm of cells acclimated to low glucose
[2] = molecular target: T1, Myc-BirA*-Txnip C247S (human) (UniProt Q9H3M7); experiment: as above
T1 sequence: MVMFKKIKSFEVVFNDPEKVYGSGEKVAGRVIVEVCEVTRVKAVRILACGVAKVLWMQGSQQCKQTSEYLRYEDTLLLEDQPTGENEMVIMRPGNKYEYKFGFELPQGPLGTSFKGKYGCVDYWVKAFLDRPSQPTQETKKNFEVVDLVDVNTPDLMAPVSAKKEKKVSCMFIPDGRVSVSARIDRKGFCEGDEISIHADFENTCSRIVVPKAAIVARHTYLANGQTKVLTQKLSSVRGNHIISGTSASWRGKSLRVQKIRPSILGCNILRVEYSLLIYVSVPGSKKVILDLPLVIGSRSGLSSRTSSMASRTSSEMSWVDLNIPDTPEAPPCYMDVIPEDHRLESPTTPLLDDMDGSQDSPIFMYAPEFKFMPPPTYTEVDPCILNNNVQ

binding [1]: binds
binding [2]: no binding
B1: DnaJ homolog subfamily C member 7 (protein, UniProt Q99615 1-494)
chain: MAAAAECDVVMAATEPELLDDQEAKREAETFKEQGNAYYAKKDYNEAYNYYTKAIDMCPKNASYYGNRAATLMMLGRFREALGDAQQSVRLDDSFVRGHLREGKCHLSLGNAMAACRSFQRALELDHKNAQAQQEFKNANAVMEYEKIAETDFEKRDFRKVVFCMDRALEFAPACHRFKILKAECLAMLGRYPEAQSVASDILRMDSTNADALYVRGLCLYYEDCIEKAVQFFVQALRMAPDHEKACIACRNAKALKAKKEDGNKAFKEGNYKLAYELYTEALGIDPNNIKTNAKLYCNRGTVNSKLRKLDDAIEDCTNAVKLDDTYIKAYLRRAQCYMDTEQYEEAVRDYEKVYQTEKTKEHKQLLKNAQLELKKSKRKDYYKILGVDKNASEDEIKKAYRKRALMHHPDRHSGASAEVQKEEEKKFKEVGEAFTILSDPKKKTRYDSGQDLDEEGMNMGDFDPNNIFKAFFGGPGGFSFEASGPGNFFFQFG

No constants are given. Whether binding was seen depends on the method and setting. Binding seen in cells or lysates may run through a third protein. These calls come from enrichment with a bait or labelling near it, and not all partners need be listed. For some assays here: No binding means not detected with the bait. For some assays here: Sequences can lack the tags named with a protein.
